Results are given in words; binding and its absence hold for the method and conditions named. In cells and extracts the contact can be indirect. Some binding calls cover weakened binding; strength is not graded here.
Biological target: native mGlu1b receptor of rat brain (rat (endogenous in rat brain)) (UniProt P23385)
Assay: co-IP

The chains behind the UniProt entries cited, without tags or fusion partners. Where a name states a change or a piece, a line headed by the entry shows the natural chain unless it says otherwise. A line that says so, or that is headed by a name, gives the form on record, which may keep a tag or linker.
native mGlu1b receptor of rat brain (rat (endogenous in rat brain)) (P23385, form named): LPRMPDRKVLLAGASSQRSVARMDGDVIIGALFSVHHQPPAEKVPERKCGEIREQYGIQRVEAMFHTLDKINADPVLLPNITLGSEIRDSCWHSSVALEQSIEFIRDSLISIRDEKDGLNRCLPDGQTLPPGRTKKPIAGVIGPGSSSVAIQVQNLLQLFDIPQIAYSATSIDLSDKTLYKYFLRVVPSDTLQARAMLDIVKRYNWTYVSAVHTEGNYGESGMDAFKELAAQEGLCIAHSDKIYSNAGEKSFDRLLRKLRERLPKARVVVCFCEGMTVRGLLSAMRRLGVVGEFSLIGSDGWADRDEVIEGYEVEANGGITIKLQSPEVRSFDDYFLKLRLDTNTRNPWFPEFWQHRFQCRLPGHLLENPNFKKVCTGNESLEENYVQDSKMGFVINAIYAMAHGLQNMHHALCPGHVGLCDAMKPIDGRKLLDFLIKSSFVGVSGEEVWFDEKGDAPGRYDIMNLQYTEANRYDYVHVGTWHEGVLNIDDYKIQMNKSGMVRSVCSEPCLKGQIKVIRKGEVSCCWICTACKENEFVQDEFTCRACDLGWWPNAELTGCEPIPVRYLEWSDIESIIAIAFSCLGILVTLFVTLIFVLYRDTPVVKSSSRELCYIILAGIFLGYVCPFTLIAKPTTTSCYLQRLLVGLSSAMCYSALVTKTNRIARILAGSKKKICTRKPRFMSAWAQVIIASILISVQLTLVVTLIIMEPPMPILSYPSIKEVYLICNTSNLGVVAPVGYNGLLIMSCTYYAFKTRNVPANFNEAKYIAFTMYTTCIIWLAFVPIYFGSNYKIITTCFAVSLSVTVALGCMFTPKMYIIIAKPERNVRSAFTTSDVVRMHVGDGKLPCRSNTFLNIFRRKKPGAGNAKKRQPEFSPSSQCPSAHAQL

- binding: binds
B1: native FEZ1 of rat brain (protein, UniProt P97577 1-393)
chain: MEAPLVSLDEEFEDIRPCCTEDPEEKPQSLYGTSPHHLEDPSLSELENFSSEIISFKSMEDLVNEFDEKLNVCFRNYNAKTENLAPVKNQLQIQEEEETLRDEEVWDALTDNYIPSLSEDWRDPNIEALNGNSSDTEIHEKEEEDEFIEKSENDSGINEEPLLTADQVIEEIEEMMQNSPDPEEEVEVLEEEDGGEISSQADSVLLQEMQALTQTFNNNWSYEGLRHMSGSELTELLDQVEGAIRDFSEELVHQLARRDELEFEKEVKNSFITVLIEVQNKQKEQRELMKKRRKEKGLSLQSSRIEKGNQMPLKRFSMEGISNILQSGIRQTFGSSGADRQYLNTVIPYEKKSSPPSVEDLQMLTNILFAMKEDNEKVPTLLTDYILKVLCPT

Reference: publication doi:10.1101/2020.11.02.365783
